{
  "source": "patent US20110281945A1",
  "about": "“GASTRIC ACID SECRETION INHIBITOR, AND POTASSIUM CHANNEL INHIBITOR” (priority 2009, published 2011)",
  "system": "Cl^− secretion",
  "test": "Short-circuit current (Isc) measurement with Ussing chambers, large-intestinal (cecum) mucosa specimen",
  "type": "cell-based, mouse",
  "conditions": "forskolin administered to serosa side after TTX",
  "source_text": "A mouse was killed by cervical vertebra dislocation. After abdominal incision, the cecum was extracted. The boundary parts of the cecum with the small intestine and the large intestine were cut to extract the cecum. The cecum was cut open with scissors into a sheet. In order to completely remove the contents, the cecum was pinched with tweezers and washed with replacement fluid. Replacement fluid was placed in a petri dish covered with rubber, and the cecum was attached thereon with the serosa side up. The muscular layer was separated using tweezers while constantly aerating the replacement fluid in the petri dish with 95% O2/5% CO2 to prepare a specimen composed of the mucosa and the submucosa. This specimen was divided into four pieces for use in the experiment.\nThe mucosa specimen was placed between two Ussing-type chambers each having a window with an area of 0.2 cm^2 and containing 5 mL of replacement fluid. For the measurement of the electrical potential difference, a pair of calomel electrodes was connected to both chambers through 1 M KCl/2% agar salt bridges. For energization, Ag/AgCl electrodes connected through 1 M NaCl/2% agar salt bridges were installed. These electrodes were connected to a voltage clamp apparatus, and the short-circuit current (Isc) was measured. As for Isc, current flowing from the mucosa side to the serosa side was determined as being positive. […]",
  "note": "At least one compound was matched to its structure with a doubt left.",
  "data": [
    {"smiles": "C=C[C@@]1(C)CC(=O)[C@]2(O)[C@@]3(C)[C@@H](O)CCC(C)(C)[C@@H]3[C@H](O)[C@H](OC(C)=O)[C@@]2(C)O1", "note": "[forskolin]", "values": [
      {"measurement": "change in Isc", "value": "significantly increased"}
    ]}
  ]
}
